Our source for the binding values is PMC10128030.

Chains of the proteins cited; added tags and fusions are not shown.
UniProt O84288: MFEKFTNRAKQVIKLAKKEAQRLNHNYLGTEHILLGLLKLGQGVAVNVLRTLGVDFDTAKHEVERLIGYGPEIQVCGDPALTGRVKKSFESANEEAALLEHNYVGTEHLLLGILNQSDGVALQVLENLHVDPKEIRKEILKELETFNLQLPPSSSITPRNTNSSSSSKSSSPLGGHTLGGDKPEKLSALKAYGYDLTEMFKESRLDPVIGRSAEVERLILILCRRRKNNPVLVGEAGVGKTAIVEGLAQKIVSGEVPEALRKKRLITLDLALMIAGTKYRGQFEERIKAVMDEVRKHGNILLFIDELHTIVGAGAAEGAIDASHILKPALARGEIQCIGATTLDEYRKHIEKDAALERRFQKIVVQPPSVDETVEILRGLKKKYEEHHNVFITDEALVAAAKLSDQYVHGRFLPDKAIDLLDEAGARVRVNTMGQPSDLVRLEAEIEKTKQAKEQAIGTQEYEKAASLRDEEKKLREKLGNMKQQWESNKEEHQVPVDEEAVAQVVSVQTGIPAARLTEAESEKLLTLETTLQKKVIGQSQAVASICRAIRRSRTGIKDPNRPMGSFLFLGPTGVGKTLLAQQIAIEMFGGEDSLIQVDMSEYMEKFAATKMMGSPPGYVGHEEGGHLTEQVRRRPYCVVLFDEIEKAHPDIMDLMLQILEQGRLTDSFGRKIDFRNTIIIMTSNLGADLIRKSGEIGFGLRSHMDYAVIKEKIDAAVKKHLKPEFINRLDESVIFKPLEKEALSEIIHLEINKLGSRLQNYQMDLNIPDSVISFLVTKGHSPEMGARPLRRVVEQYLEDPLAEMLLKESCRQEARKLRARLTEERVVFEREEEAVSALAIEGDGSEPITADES
UniProt O84711: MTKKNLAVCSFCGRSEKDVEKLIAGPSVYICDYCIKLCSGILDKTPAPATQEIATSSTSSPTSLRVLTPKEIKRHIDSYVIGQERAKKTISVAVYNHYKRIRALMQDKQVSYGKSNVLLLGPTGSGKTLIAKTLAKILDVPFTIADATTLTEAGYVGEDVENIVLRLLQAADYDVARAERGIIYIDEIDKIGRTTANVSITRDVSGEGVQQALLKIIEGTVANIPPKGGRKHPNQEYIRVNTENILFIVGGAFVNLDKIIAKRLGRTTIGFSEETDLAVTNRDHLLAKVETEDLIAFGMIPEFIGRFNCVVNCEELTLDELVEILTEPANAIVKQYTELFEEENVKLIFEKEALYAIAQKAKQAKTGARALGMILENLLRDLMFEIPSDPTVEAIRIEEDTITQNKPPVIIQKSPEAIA

Assay [1] deals with C. trachomatis ClpC, wild type, BACTH fusion (T25 or T18) (C. trachomatis L2 (Bu 434)) (UniProt O84288). Kind of assay: two-hybrid; bacterial adenylate cyclase two-hybrid (BACTH): T25 and T18 fusions from pKT25 and pUT18C cotransformed into Δcya E. coli DHT1; M63 minimal medium plates with maltose, 0.5 mM IPTG and X-Gal; β-galactosidase assay in Miller units.
Assay [2] concerns the target ClpC_6×His, wild type, ectopically expressed in C. trachomatis L2 (C. trachomatis L2 (Bu 434)) (UniProt O84288). Kind of assay: cross-linking; HeLa cells infected with C. trachomatis L2 (wild type or transformants induced at 16 hpi) treated with 0.25 mM DSS in HBSS pH 7.6 on ice at 4°C for at least 1 h; whole-cell lysates on 8% SDS-PAGE, immunoblot with anti-ClpC (endogenous) or anti-6×His (ectopic). (A western blot detects proteins with antibodies after separation by electrophoresis.)

No constants are given. Whether binding was seen depends on the method and setting. For part of these data: In cells and extracts the contact can be indirect. Some binding calls cover weakened binding; strength is not graded here.

With “C. trachomatis ClpC, wild type, BACTH fusion (T25 or T18) (from UniProt O84288 1-854)”, the binding entry in assay [1] was “binds”. On to “C. trachomatis ClpX, BACTH fusion (from UniProt O84711 1-419)”, for which, in assay [1], the binding entry is recorded as “no binding”. As for “ClpC_6×His, wild type, ectopically expressed in C. trachomatis L2 (from UniProt O84288 1-854)”, the binding result in assay [2] is “binds”.
